{"source": "PubChem BioAssay AID504784 (Drosophila RNAi Screening Center, 2011)", "screen": "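Search for regulators of lipid droplet storage in oleate-fed fly cells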 (primary screen)", "cells": "Drosophila Kc167 embryonic cells", "reagents": "long dsRNA against Drosophila genes, about 250 ng dsRNA per well", "time to read-out": "4 days", "challenge": "cells fed 400 µM oleic acid bound to BSA", "measured": "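Microscope images give a droplet-to-nucleus area ratio, taken as log and converted to a screen-wide B-score; higher values mean greater lipid storage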", "direction": "droplet/nuclear area B-score: higher = more stored lipid (overstorage)", "note": "The deposit covers about 17,000 reagents; shown is a random part of those that have a named target and a result. 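Each column is one replicate's B-score; the combined score over replicates was not deposited, so single values may mislead.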 No sequences are given here."}
{"target":"kin17","DRSC id":"DRSC11890","droplet/nuclear area B-score, replicate 1":0.178,"droplet/nuclear area B-score, replicate 2":1.16}
{"target":"unc-13-4A","DRSC id":"DRSC10201","droplet/nuclear area B-score, replicate 1":-0.28,"droplet/nuclear area B-score, replicate 2":-0.201}
{"target":"unc-13-4A","DRSC id":"DRSC10202","droplet/nuclear area B-score, replicate 1":-0.543,"droplet/nuclear area B-score, replicate 2":1.1}
{"target":"unc-13-4A","DRSC id":"DRSC10203","droplet/nuclear area B-score, replicate 1":-0.0111,"droplet/nuclear area B-score, replicate 2":0.465}
{"target":"unc-13-4A","DRSC id":"DRSC11013","droplet/nuclear area B-score, replicate 1":0.347,"droplet/nuclear area B-score, replicate 2":-0.929}
{"target":"Prosbeta5R2 (Proteasome beta5 subunit-related 2)","DRSC id":"DRSC01617","droplet/nuclear area B-score, replicate 1":0.902,"droplet/nuclear area B-score, replicate 2":-3.04}
{"target":"Rpt3R (Regulatory particle triple-A ATPase 3-related)","DRSC id":"DRSC16501","droplet/nuclear area B-score, replicate 1":0.0612,"droplet/nuclear area B-score, replicate 2":1.1}
{"target":"CG5556","DRSC id":"DRSC00687","droplet/nuclear area B-score, replicate 1":-0.0083,"droplet/nuclear area B-score, replicate 2":1.49}
{"target":"Swim (Secreted Wg-interacting molecule)","DRSC id":"DRSC04334","droplet/nuclear area B-score, replicate 1":-2.66,"droplet/nuclear area B-score, replicate 2":-2.26}
{"target":"Fas3 (Fasciclin 3)","DRSC id":"DRSC03326","droplet/nuclear area B-score, replicate 1":3.71,"droplet/nuclear area B-score, replicate 2":2.37}
{"target":"Fas3 (Fasciclin 3)","DRSC id":"DRSC22776","droplet/nuclear area B-score, replicate 1":-1.82,"droplet/nuclear area B-score, replicate 2":-0.0119}
{"target":"CG3520","DRSC id":"DRSC04383","droplet/nuclear area B-score, replicate 1":-2.9,"droplet/nuclear area B-score, replicate 2":0.476}
{"target":"Art2 (Arginine methyltransferase 2)","DRSC id":"DRSC00627","droplet/nuclear area B-score, replicate 1":-0.227,"droplet/nuclear area B-score, replicate 2":0.005}
{"target":"mus301 (mutagen-sensitive 301)","DRSC id":"DRSC10939","droplet/nuclear area B-score, replicate 1":0.76,"droplet/nuclear area B-score, replicate 2":-0.00367}
{"target":"ChLD3 (Chitin and LDLR binding deacetylase 3)","DRSC id":"DRSC02640","droplet/nuclear area B-score, replicate 1":-0.138,"droplet/nuclear area B-score, replicate 2":-0.0983}
{"target":"Taf11 (TBP-associated factor 11)","DRSC id":"DRSC03448","droplet/nuclear area B-score, replicate 1":-0.604,"droplet/nuclear area B-score, replicate 2":-0.702}
{"target":"pps (protein partner of snf)","DRSC id":"DRSC16057","droplet/nuclear area B-score, replicate 1":2.94,"droplet/nuclear area B-score, replicate 2":1.81}
{"target":"CG3402","DRSC id":"DRSC08567","droplet/nuclear area B-score, replicate 1":1.29,"droplet/nuclear area B-score, replicate 2":-1.68}
{"target":"CG9799","DRSC id":"DRSC16567","droplet/nuclear area B-score, replicate 1":-0.0662,"droplet/nuclear area B-score, replicate 2":-0.0298}
{"target":"Rab27","DRSC id":"DRSC18567","droplet/nuclear area B-score, replicate 1":0.134}
{"target":"Arp10 (Actin-related protein 10)","DRSC id":"DRSC19448","droplet/nuclear area B-score, replicate 1":0.116,"droplet/nuclear area B-score, replicate 2":0.436}
{"target":"CG8607","DRSC id":"DRSC11012","droplet/nuclear area B-score, replicate 1":-0.0118,"droplet/nuclear area B-score, replicate 2":0.352}
{"target":"RpL10Ab (Ribosomal protein L10Ab)","DRSC id":"DRSC10798","droplet/nuclear area B-score, replicate 1":3.18,"droplet/nuclear area B-score, replicate 2":5.91}
{"target":"CG4743","DRSC id":"DRSC15636","droplet/nuclear area B-score, replicate 1":-1.73,"droplet/nuclear area B-score, replicate 2":1.05}
{"target":"Nmdmc (NAD-dependent methylenetetrahydrofolate dehydrogenase)","DRSC id":"DRSC16760","droplet/nuclear area B-score, replicate 1":0.114,"droplet/nuclear area B-score, replicate 2":-0.824}
{"target":"Amy-p (Amylase proximal)","DRSC id":"DRSC06786","droplet/nuclear area B-score, replicate 1":1.85,"droplet/nuclear area B-score, replicate 2":-3.14}
{"target":"CG32295","DRSC id":"DRSC23259","droplet/nuclear area B-score, replicate 1":-0.847,"droplet/nuclear area B-score, replicate 2":-0.243}

Copied from the list:
Amy-p (Amylase proximal) [DRSC06786], droplet/nuclear area B-score, replicate 2 = -3.14
mus301 (mutagen-sensitive 301) [DRSC10939], droplet/nuclear area B-score, replicate 2 = -0.00367
Result of Swim (Secreted Wg-interacting molecule) [DRSC04334] in “droplet/nuclear area B-score, replicate 2”: -2.26
unc-13-4A [DRSC10201], droplet/nuclear area B-score, replicate 2 → -0.201
